Assay results published in the supplement of paper PMC7666118.
This is one part of the list.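 How the source made its calls: active = dose-dependent thermal stabilisation significant by F-test of dose-response against flat model at 10% FDR; inactive = not significant.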

Amino acid sequences for entries named in this document (tags omitted). A change or cut given only in a name is not applied to a line headed by its entry.
UniProt Q15311: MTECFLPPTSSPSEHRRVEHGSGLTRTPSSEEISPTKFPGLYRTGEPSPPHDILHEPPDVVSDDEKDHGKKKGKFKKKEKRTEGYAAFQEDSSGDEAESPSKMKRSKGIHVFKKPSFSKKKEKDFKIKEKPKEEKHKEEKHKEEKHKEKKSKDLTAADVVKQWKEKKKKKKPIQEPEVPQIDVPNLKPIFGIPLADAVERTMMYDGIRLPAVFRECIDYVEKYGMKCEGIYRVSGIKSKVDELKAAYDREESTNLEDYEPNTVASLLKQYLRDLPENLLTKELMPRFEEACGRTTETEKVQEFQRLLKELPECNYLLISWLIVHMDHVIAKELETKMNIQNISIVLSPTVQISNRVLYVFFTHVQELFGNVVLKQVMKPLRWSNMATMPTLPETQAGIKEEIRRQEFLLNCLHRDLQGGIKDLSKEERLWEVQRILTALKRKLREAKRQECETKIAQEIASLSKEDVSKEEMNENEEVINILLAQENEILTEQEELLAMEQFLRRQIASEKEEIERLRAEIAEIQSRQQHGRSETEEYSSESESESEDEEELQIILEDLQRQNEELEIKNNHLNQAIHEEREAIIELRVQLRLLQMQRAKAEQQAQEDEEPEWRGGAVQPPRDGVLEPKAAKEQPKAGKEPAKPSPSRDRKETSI
UniProt Q06323: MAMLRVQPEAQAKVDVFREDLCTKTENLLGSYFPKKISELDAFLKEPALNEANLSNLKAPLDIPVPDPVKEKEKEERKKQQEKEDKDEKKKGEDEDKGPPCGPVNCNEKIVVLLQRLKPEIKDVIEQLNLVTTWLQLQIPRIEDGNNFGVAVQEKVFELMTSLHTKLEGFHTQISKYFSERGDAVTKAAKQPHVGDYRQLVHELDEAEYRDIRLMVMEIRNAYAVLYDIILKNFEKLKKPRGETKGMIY
UniProt O43251: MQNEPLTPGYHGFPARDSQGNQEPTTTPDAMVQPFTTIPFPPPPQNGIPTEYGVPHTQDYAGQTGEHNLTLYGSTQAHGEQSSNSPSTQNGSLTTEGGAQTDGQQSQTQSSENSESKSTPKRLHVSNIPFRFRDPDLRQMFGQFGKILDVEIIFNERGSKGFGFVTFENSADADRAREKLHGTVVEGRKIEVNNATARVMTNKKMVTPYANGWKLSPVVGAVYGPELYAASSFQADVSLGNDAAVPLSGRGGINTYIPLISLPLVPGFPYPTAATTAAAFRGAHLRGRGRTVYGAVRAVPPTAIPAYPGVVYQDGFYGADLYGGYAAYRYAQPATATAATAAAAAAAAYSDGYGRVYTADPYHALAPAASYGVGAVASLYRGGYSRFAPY
UniProt P48634: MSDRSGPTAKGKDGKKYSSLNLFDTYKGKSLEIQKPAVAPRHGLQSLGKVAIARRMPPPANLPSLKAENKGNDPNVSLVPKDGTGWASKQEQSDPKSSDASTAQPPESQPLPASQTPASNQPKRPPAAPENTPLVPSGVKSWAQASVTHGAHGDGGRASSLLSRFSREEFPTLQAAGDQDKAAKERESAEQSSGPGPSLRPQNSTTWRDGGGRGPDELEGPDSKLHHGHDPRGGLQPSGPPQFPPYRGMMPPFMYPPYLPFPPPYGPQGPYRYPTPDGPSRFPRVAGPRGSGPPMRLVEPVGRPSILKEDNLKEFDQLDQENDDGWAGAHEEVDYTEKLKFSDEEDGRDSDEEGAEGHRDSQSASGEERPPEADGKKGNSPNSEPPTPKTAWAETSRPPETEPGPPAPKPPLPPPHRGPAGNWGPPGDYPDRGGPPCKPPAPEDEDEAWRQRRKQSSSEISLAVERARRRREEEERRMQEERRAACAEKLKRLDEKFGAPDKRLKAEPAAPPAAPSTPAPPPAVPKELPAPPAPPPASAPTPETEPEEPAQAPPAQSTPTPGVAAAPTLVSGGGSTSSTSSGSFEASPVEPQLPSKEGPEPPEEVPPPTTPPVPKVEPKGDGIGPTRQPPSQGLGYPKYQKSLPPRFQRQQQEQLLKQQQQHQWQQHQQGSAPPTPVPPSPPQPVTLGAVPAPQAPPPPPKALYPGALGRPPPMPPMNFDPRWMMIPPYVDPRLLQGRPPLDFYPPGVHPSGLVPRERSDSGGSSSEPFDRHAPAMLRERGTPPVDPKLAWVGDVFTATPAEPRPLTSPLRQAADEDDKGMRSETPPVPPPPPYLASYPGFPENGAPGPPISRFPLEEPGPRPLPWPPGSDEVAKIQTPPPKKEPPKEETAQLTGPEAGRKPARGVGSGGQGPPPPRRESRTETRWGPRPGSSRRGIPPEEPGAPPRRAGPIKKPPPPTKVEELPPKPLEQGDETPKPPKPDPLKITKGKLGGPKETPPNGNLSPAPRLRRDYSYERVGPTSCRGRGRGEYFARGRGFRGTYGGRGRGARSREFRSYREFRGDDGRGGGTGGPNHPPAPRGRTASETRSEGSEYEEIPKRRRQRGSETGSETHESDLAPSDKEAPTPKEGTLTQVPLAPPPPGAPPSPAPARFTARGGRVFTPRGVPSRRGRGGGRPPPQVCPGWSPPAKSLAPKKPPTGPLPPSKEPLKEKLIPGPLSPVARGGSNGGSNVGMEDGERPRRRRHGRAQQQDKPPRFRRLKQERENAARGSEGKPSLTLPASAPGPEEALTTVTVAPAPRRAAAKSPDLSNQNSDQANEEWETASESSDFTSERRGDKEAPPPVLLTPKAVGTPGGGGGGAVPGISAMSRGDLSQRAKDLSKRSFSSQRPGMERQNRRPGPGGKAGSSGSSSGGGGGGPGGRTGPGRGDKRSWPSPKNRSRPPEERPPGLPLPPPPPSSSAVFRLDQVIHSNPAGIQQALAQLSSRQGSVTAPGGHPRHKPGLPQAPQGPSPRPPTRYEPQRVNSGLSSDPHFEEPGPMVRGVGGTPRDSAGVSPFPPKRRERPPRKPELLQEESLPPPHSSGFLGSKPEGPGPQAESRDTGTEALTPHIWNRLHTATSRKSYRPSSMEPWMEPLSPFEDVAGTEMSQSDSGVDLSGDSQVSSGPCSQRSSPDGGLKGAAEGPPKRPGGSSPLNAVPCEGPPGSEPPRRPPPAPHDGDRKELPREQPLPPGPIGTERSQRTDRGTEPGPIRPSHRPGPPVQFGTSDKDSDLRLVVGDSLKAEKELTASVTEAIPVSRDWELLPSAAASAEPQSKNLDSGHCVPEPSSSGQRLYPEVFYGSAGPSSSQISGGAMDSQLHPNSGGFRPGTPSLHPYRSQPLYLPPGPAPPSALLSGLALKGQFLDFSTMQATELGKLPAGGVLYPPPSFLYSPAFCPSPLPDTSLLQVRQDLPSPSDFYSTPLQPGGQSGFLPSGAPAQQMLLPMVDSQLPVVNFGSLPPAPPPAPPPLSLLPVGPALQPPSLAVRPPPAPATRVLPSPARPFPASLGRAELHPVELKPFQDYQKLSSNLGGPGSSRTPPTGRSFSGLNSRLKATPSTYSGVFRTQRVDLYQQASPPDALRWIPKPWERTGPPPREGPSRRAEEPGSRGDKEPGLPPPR
UniProt O43502: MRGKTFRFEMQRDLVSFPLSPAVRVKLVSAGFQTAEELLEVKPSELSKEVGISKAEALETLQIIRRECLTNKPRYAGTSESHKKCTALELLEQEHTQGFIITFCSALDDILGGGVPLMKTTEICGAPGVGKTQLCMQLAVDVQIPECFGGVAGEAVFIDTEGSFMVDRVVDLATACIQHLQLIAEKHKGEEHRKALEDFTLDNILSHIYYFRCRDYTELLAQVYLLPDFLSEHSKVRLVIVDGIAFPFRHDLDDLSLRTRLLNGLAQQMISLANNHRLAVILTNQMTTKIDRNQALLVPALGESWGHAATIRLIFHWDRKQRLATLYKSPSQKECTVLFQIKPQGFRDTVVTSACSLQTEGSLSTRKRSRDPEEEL
UniProt Q9NWB1: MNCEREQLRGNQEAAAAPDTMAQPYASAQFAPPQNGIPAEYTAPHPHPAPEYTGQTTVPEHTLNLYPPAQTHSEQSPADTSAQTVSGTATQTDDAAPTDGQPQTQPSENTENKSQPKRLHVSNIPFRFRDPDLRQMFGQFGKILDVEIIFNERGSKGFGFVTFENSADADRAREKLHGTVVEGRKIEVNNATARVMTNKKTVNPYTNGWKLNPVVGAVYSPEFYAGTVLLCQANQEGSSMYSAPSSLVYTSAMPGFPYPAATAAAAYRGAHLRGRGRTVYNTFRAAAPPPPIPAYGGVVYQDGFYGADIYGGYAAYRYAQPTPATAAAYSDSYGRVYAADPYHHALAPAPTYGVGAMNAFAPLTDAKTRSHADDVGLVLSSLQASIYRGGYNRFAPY
UniProt Q9UHX1: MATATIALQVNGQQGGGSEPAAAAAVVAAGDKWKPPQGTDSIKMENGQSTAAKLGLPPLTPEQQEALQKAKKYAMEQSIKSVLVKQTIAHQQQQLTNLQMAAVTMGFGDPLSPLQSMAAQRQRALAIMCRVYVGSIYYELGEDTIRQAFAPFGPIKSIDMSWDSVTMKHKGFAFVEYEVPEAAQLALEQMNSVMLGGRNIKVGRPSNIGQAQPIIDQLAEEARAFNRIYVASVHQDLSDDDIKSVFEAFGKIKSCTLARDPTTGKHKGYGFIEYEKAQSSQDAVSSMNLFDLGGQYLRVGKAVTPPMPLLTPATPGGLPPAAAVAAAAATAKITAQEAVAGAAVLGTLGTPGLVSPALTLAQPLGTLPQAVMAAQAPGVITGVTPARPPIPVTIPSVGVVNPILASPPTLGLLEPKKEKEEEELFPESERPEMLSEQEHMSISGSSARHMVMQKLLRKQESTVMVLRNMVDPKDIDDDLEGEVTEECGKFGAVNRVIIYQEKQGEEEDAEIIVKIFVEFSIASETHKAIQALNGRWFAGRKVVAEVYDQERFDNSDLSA
UniProt Q96PZ0: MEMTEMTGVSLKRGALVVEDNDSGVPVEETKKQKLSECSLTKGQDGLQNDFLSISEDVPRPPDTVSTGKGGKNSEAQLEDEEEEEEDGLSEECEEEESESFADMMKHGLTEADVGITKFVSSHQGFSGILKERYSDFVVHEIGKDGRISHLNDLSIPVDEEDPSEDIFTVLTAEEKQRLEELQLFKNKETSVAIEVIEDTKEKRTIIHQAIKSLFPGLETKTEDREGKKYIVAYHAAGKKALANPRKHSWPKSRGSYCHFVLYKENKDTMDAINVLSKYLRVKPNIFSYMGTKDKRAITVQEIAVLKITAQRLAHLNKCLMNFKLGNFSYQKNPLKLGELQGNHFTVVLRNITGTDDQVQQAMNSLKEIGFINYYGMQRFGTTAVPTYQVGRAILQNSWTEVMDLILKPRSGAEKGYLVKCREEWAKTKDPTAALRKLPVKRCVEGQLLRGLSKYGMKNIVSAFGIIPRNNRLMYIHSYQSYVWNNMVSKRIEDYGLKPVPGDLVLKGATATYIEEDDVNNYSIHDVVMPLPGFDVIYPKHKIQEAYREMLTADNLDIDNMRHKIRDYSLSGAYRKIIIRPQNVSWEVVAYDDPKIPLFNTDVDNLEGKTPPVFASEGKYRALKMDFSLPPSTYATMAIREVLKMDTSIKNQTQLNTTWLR
UniProt P61289: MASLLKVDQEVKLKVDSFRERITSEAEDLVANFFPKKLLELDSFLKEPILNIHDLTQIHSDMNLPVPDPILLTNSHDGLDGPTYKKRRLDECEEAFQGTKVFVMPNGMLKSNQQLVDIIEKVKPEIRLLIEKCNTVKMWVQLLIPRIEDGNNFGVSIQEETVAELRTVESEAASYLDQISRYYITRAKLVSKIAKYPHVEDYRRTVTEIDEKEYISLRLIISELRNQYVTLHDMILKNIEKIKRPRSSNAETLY
UniProt O60256: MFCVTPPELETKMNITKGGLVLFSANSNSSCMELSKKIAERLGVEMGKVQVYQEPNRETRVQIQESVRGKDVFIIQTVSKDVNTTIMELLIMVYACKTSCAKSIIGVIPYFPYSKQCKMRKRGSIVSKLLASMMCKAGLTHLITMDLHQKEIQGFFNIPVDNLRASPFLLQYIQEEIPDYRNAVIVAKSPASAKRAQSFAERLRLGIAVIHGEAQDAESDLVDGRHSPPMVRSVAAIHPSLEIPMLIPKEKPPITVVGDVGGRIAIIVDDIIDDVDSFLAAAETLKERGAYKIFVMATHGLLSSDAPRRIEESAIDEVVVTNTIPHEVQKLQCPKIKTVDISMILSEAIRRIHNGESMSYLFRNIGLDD
UniProt Q9NP72: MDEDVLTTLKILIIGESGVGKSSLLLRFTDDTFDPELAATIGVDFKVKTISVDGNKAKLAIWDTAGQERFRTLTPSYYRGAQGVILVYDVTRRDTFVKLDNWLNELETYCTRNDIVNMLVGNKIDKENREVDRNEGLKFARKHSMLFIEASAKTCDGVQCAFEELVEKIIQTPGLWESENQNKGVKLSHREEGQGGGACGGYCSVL
UniProt P61020: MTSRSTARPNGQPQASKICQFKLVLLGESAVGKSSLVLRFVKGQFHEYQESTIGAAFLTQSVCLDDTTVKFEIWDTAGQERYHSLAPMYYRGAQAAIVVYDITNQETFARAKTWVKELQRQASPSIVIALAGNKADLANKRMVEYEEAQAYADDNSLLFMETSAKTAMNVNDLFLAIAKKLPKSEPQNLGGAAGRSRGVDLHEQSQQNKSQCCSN

What follows are targets tested with Nc1nc2c(ncn2[C@@H]2O[C@H](COP(=O)(O)OP(=O)(O)OP(=O)(O)O)[C@@H](O)[C@H]2O)c(=O)[nH]1 (assay: dose-dependent thermal stabilisation call (2D-TPP, DLPTP, 10% FDR) (binary (1 = stabilised)); higher = stabilised by the compound). Conditions: system: Jurkat gel-filtered lysate; concentration range 1-500 µM.
Experimental: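 2D thermal proteome profiling in gel-filtered Jurkat E6.1 lysate (2 mg/ml) treated with NaGTP (0, 1, 10, 100, 500 uM) for 10 min at room temperature, then heated 3 min at one of 12 temperatures (42-63.9 C). Soluble protein was quantified by TMT10 MS. The value is the DLPTP call of the paper: dose-dependent thermal stabilisation over all temperatures at 10% FDR (F-test of a dose-response against a flat model); one experiment, one call per tested protein.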

Target | dose-dependent thermal stabilisation call
RBM27 (UniProt Q9P2N5) | inactive: 0
RABGEF1 (UniProt Q9UJ41) | inactive: 0
RAC1 (UniProt P63000) | inactive: 0
RCC2 (UniProt Q9P258) | inactive: 0
RABGGTB (UniProt P53611) | inactive: 0
PYCR2 (UniProt Q96C36) | inactive: 0
PTPRK (UniProt Q15262) | inactive: 0
RBL2 (UniProt Q08999) | inactive: 0
RALBP1 (UniProt Q15311) | active: 1
PSME1 (UniProt Q06323) | inactive: 0
RBFOX2 (UniProt O43251) | inactive: 0
PRRC2A (UniProt P48634) | inactive: 0
PSPC1 (UniProt Q8WXF1) | active: 1
PSMC1 (UniProt P62191) | inactive: 0
PRKCD (UniProt Q05655) | inactive: 0
RACK1 (UniProt P63244) | inactive: 0
RAD50 (UniProt Q92878) | active: 1
RAD51C (UniProt O43502) | active: 1
RBM15 (UniProt Q96T37) | inactive: 0
RBFOX1 (UniProt Q9NWB1) | inactive: 0

Nine neighbouring records already listed, for reference:
Target | dose-dependent thermal stabilisation call
RALBP1 (UniProt Q15311) | active: 1
PSME1 (UniProt Q06323) | inactive: 0
RBFOX2 (UniProt O43251) | inactive: 0
PRRC2A (UniProt P48634) | inactive: 0
PSPC1 (UniProt Q8WXF1) | active: 1
PSMC1 (UniProt P62191) | inactive: 0
PRKCD (UniProt Q05655) | inactive: 0
RACK1 (UniProt P63244) | inactive: 0
RAD50 (UniProt Q92878) | active: 1

Additional results follow.

Target | dose-dependent thermal stabilisation call
PUF60 (UniProt Q9UHX1) | inactive: 0
RBM4 (UniProt Q9BWF3) | active: 1
PSMD11 (UniProt O00231) | inactive: 0
RAB1A (UniProt P62820) | active: 1
PRR36 (UniProt Q9H6K5) | inactive: 0
PTBP2 (UniProt Q9UKA9) | inactive: 0
PUS7 (UniProt Q96PZ0) | inactive: 0
PRPS1 (UniProt P60891) | inactive: 0
PROSC (UniProt O94903) | inactive: 0
RBM48 (UniProt Q5RL73) | inactive: 0
PSME3 (UniProt P61289) | inactive: 0
PRPSAP2 (UniProt O60256) | inactive: 0
RAB18 (UniProt Q9NP72) | active: 1
PSMB1 (UniProt P20618) | inactive: 0
PRUNE1 (UniProt Q86TP1) | active: 1
PSMF1 (UniProt Q92530) | inactive: 0
RAB5B (UniProt P61020) | inactive: 0
PSMC3 (UniProt P17980) | inactive: 0
RAP1GAP2 (UniProt Q684P5) | active: 1
RAB39B (UniProt Q96DA2) | active: 1
